Counter-ions that a name gives are not always drawn. ± gives the standard deviation of the averaged measurements. The list shows a part of the results. Plates or batches differ in their baseline, so values are only roughly comparable.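 The cells are a mouse kidney inner medullary collecting duct line, silenced either for the ciliary gene Rpgrip1l or with a non-targeting control siRNA. Primary scores are means of two runs against batch controls; in the follow-up screen a hit raised cilia by at least 2 over its matching control, and compounds dropping cell number by 2 or more were excluded. The cells are a mouse kidney inner medullary collecting duct line, silenced either for the ciliary gene Rpgrip1l or with a non-targeting control siRNA.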
Experiments:
mIMCD3 [1] = experiment: robust z score of cell number vs plate controls; higher = more cells (less cytotoxic); details: 10 µM, 48 h
mIMCD3 [2] = experiment: robust z cell number difference from vehicle control (robust z score difference); higher = more cells; details: 10 µM, 48 h
mIMCD3 [3] = experiment: robust z score of cilia incidence (% cells with single cilium) vs plate controls; higher = more ciliated cells; details: 10 µM; 48 h; siRNA: siScr
mIMCD3 [4] = experiment: robust z cilia incidence difference from vehicle control (robust z score difference); higher = more ciliated cells; details: 10 µM; 48 h; siRNA: siScr
mIMCD3 [5] = experiment: robust z cilia incidence difference from vehicle control (robust z score difference); higher = more ciliated cells (rescue); details: 10 µM; 48 h; siRNA: siRpgrip1l
mIMCD3 [6] = experiment: robust z score of cilia incidence (% cells with single cilium) vs plate controls; higher = more ciliated cells (rescue of cilia loss); details: 10 µM; 48 h; siRNA: siRpgrip1l

SMILES | robust z score of cell number (mIMCD3 [1]; siRNA: siRpgrip1l) | robust z score of cell number (mIMCD3 [1]; siRNA: siScr) | robust z cell number difference (mIMCD3 [2]; siRNA: siRpgrip1l) | robust z cell number difference (mIMCD3 [2]; siRNA: siScr) | robust z score of cilia incidence (mIMCD3 [3]) | robust z cilia incidence difference (mIMCD3 [4]) | robust z cilia incidence difference (mIMCD3 [5]) | robust z score of cilia incidence (mIMCD3 [6])
COC(=O)[C@H]1[C@H]2C[C@@H]3c4[nH]c5cc(OC)ccc5c4CCN3C[C@H]2C[C@@H](OC(=O)c2cc(OC)c(OC)c(OC)c2)[C@@H]1OC [Reserpine] | -5.39 ± 7.3 | -3.01 ± 3.4 | -12.6 | -5.71 ± 8.4 | -12.6 ± 1.8 | -3.97 ± 9.4 | -27.1 | -9.79 ± 4
CC(C)NC[C@H](O)COc1cccc2ccccc12 [(S)-(-)-Propranolol hydrochloride] | -2.25 ± 0.098 | -1.96 ± 1.2 | -16.3 | -8.69 ± 11 | 4.75 ± 0.81 | -9.72 ± 17 | -26.7 | 0.58 ± 1.3
CC1=C(CC(=O)O)c2cc(F)ccc2/C1=C\c1ccc([S+](C)[O-])cc1 (stereo unspecified) [Sulindac] | 1.59 ± 5.8 | 0.105 ± 1.2 | -15 | -11.3 ± 6.7 | 7.44 ± 5.3 | -7.9 ± 13 | -18 | -4.89 ± 6.5
NC1CCN(c2cccc(Cl)n2)CC1 | -0.931 ± 0.71 | -3.67 ± 3.1 | -12 | -0.707 ± 2.2 | 7 ± 2.8 | 2.78 ± 0.074 | -21.5 | -5.42 ± 2.5
NC(C(=O)O)c1ccc(C(=O)O)c(C(=O)O)c1 (racemic) | -11.7 ± 5.7 | -3.42 ± 1.3 | 0.433 | -4.21 ± 3.9 | 0.74 ± 1.8 | 2.85 ± 0.12 | -2.42 | -6.22 ± 3.6
CC(C)CC(NC(=O)OCC1c2ccccc2-c2ccccc21)C(=O)O (stereo unspecified) | -5.28 ± 6.5 | 2.27 ± 4.2 | -1.25 | 0.99 ± 0.12 | 0.971 ± 0.52 | -3.09 ± 8.1 | 1.72 | -5.92 ± 6.2
COc1[nH]c2ccc(F)cc2c1C(=O)OCC1CCN(CCNS(C)(=O)=O)CC1.NS(=O)(=O)O | 9.49 ± 18 | -5.37 ± 1.8 | -12.4 | -4.24 ± 7.6 | 0.458 ± 2.6 | 1.22 ± 3.4 | -14.6 | -96.8 ± 37
COC(=O)[C@@H]1[C@H]2C[C@H]3c4[nH]c5ccccc5c4CCN3C[C@@H]2CC[C@@H]1O [Yohimbine hydrochloride] | -2.05 ± 0.06 | -1.86 ± 4.8 | -5.32 | -1.7 ± 6.8 | 4.13 ± 3.3 | 3.01 ± 0.6 | -7.65 | -7.58 ± 0.24
CO[C@@H]1[C@H](O)[C@@H](CO)O[C@H]1n1cnc2c(NC3CCCCC3)ncnc21 | -1.78 ± 4.9 | -2.01 ± 2.7 | -9.55 | -6.38 ± 7.8 | 2.13 ± 0.12 | -1.26 ± 6 | -14.6 | -4.94 ± 1.8
CCOC(=O)C1=C(C)NC(=S)NC1c1cccc(O)c1 (stereo unspecified) [Monastrol] | -15.5 ± 20 | -1.1 ± 0.52 | -14.9 | -11.1 ± 5.1 | 5.06 ± 5.8 | -7.03 ± 2.6 | -21.7 | -5.63 ± 2.1
COc1cc(OC)c(C(=O)CCCCN2CCC3(CC2)NC(=O)NC3=O)cc1NS(=O)(=O)c1ccc(C(F)(F)F)cc1 | -10.2 ± 11 | -1.93 ± 0.13 | 1.9 | 0.761 ± 2.9 | 1.84 ± 0.67 | 2.72 ± 1.8 | 3.71 | -9.68 ± 0.74
O=[N+]([O-])c1cccc2cn[nH]c12 [7-Nitroindazole] | -6.53 ± 5.5 | 9.63 ± 9.5 | 2.61 | 1.39 ± 3.3 | 1.68 ± 1.4 | -3.08 ± 6 | 2.74 | -5.09 ± 13
O=c1nc2ccccc2c2n1CC(CN1CCN(c3ccccc3)CC1)N2 (stereo unspecified) | -6.16 ± 6.1 | -11.9 ± 16 | -1.38 | -3.06 ± 5.2 | 0.807 ± 0.7 | -4.31 ± 6.2 | -8.43 | -7.35 ± 1.3
N[C@@H](Cc1cc(CP(=O)(O)O)cc(-c2ccccc2Cl)c1)C(=O)O | -9.96 ± 16 | 0.915 ± 3.9 | 0.933 | 1.96 ± 2.7 | 1.07 ± 0.83 | 4.15 ± 1.9 | 1.96 | -7.39 ± 5.3
Cc1nc2c(O)cccc2c(=O)[nH]1 | -9.06 ± 15 | -2.27 ± 0.16 | 0.114 | 0.677 ± 0.91 | 4.99 ± 5 | 4.29 ± 2.1 | 0.678 | -6.02 ± 2.8
N=C(N)c1ccc(N2CCN(C3CCN(CC(=O)O)CC3)CC2)cc1 | -7.31 ± 1.4 | -2.09 ± 0.27 | 1.03 | -1.01 ± 5.9 | 4.38 ± 3.5 | 3.89 ± 3.2 | 5.17 | -6.19 ± 1.9
CC(=O)N[C@@H](Cc1c[nH]c2ccccc12)C(=O)OCc1cc(C(F)(F)F)cc(C(F)(F)F)c1 | -1.8 ± 4.9 | 0.55 ± 2.9 | -2.25 | -0.193 ± 2.9 | 0.107 ± 2.2 | 3.21 ± 1.2 | -4.64 | -2.05 ± 1.6
Cc1cccc(Nc2cc(Cl)nc(SCC(=O)O)n2)c1C | -8.19 ± 9.6 | 3.16 ± 0.65 | -12.2 | -8.49 ± 3.1 | -1.49 ± 1.2 | -1.07 ± 0.11 | -4.86 | -7.92 ± 0.15
CS(=O)(=O)Nc1c(O)ccc2c1CCCC2C1=NCCN1 (stereo unspecified) | -5.72 ± 5.9 | -4.43 ± 0.14 | 1.89 | -2.6 ± 3.1 | 2.49 ± 1.5 | -0.663 ± 8.6 | 5.38 | -4.52 ± 7.4
CC(C)(Oc1ccc(Cl)cc1)C(=O)O [Clofibric acid] | 0.0253 ± 0.88 | -1.29 ± 2.8 | 3.4 | 2 ± 5.1 | 2.66 ± 1.2 | -5.32 ± 6.1 | 2.76 | -2.74 ± 0.62
Nc1nc(NCCc2ccc(O)cc2)nc2nc(-c3ccco3)nn12 | -27.3 ± 21 | -9.77 ± 0.41 | -15.9 | -9.62 ± 9.3 | -7.12 ± 0.18 | -7.45 ± 12 | -36.7 | -23.687 ± 0.0089
O=S(=O)(c1cccc2cnccc12)N1CCCNCC1 [Fasudil hydrochloride] | -5.11 ± 5.5 | 11.1 ± 12 | 1.87 | -0.00406 ± 0.72 | 3.95 ± 0.97 | -4.47 ± 8.5 | 5.34 | -3.19 ± 0.94

Single records (already shown). Order of values: robust z score of cell number (mIMCD3 [1]; siRNA: siRpgrip1l)	robust z score of cell number (mIMCD3 [1]; siRNA: siScr)	robust z cell number difference (mIMCD3 [2]; siRNA: siRpgrip1l)	robust z cell number difference (mIMCD3 [2]; siRNA: siScr)	robust z score of cilia incidence (mIMCD3 [3])	robust z cilia incidence difference (mIMCD3 [4])	robust z cilia incidence difference (mIMCD3 [5])	robust z score of cilia incidence (mIMCD3 [6])
`CC(=O)N[C@@H](Cc1c[nH]c2ccccc12)C(=O)OCc1cc(C(F)(F)F)cc(C(F)(F)F)c1` as listed: -1.8 ± 4.9	0.55 ± 2.9	-2.25	-0.193 ± 2.9	0.107 ± 2.2	3.21 ± 1.2	-4.64	-2.05 ± 1.6
`Nc1nc(NCCc2ccc(O)cc2)nc2nc(-c3ccco3)nn12` as listed: -27.3 ± 21	-9.77 ± 0.41	-15.9	-9.62 ± 9.3	-7.12 ± 0.18	-7.45 ± 12	-36.7	-23.687 ± 0.0089
